Laboratory results taken from publication PMC12648486, “A LisH-domain protein interaction map reveals a Lis1-ARIH2-dynein regulatory axis” (iScience, 2025).

Sequences of proteins named here, by UniProt entry; tags and fusion partners are left off.
UniProt O95376: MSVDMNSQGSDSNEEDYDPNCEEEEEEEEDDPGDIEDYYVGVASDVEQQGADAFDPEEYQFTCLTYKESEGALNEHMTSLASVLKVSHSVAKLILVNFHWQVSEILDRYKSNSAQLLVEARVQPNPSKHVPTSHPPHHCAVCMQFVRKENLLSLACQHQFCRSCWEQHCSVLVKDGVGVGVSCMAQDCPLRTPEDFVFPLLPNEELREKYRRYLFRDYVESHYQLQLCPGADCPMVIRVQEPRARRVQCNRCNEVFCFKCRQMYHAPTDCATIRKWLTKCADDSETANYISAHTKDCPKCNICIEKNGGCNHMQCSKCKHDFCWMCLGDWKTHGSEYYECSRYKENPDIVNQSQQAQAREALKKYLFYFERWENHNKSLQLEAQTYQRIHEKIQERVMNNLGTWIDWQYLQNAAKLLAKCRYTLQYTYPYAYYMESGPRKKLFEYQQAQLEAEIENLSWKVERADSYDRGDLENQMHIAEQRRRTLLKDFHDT
UniProt Q8IWT3: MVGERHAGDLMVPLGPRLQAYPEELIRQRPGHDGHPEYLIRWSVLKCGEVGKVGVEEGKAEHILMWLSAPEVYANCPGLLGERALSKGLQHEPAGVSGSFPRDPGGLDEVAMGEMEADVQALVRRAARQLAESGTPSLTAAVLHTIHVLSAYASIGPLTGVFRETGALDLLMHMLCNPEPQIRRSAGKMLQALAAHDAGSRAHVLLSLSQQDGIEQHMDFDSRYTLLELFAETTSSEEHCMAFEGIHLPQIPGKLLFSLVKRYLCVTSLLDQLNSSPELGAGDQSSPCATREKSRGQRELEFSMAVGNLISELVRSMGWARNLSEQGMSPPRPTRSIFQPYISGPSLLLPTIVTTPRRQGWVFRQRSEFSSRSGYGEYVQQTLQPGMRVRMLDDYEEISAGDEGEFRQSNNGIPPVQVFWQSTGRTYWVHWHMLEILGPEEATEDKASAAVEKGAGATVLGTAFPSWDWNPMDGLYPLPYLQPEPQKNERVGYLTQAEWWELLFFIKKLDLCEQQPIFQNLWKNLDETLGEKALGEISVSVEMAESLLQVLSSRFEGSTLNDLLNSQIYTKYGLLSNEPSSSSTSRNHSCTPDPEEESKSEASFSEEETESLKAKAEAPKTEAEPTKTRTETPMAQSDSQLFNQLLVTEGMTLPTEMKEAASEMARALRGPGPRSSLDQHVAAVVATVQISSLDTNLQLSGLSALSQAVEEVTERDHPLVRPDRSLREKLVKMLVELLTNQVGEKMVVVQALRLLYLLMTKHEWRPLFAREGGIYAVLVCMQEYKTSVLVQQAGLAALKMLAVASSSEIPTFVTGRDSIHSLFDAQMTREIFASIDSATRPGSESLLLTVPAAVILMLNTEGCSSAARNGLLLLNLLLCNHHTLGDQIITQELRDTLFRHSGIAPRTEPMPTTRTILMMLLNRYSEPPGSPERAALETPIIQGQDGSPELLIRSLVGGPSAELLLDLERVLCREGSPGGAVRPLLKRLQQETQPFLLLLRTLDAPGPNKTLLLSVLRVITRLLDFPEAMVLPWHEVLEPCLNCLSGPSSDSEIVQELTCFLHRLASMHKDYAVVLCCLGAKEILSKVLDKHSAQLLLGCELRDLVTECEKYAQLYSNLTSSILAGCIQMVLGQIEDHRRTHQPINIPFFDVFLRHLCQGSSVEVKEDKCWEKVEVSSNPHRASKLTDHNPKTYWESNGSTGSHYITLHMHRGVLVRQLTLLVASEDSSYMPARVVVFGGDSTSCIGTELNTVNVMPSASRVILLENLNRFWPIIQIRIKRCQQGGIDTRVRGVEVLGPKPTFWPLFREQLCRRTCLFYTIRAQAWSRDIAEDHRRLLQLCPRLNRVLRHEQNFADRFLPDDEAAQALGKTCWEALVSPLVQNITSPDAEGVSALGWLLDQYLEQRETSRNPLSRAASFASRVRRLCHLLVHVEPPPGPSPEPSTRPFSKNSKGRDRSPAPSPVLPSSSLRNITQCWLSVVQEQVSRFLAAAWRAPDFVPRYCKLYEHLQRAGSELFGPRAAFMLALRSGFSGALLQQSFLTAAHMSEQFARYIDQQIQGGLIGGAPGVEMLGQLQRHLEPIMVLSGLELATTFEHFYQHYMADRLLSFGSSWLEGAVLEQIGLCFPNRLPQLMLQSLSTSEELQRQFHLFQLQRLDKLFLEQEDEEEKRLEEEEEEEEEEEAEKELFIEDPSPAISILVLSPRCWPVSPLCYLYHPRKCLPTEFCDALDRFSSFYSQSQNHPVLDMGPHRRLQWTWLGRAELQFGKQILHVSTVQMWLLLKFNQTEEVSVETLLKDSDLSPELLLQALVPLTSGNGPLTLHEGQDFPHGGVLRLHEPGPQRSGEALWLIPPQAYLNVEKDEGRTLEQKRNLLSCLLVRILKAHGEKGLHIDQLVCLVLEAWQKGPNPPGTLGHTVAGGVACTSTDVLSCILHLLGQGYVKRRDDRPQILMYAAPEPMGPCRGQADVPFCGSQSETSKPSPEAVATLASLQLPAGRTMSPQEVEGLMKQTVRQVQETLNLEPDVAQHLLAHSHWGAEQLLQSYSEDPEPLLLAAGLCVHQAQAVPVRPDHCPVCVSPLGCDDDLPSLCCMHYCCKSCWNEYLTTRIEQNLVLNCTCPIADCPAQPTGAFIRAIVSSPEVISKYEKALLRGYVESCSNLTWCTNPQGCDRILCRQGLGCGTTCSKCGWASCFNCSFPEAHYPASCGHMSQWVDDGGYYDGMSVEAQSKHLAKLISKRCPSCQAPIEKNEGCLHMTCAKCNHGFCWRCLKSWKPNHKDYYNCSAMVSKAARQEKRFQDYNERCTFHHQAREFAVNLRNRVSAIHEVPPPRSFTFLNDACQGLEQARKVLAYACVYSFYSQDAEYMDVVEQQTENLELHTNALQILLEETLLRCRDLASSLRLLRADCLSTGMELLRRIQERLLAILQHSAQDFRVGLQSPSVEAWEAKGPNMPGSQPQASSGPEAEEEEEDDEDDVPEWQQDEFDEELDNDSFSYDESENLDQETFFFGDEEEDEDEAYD
UniProt Q14999: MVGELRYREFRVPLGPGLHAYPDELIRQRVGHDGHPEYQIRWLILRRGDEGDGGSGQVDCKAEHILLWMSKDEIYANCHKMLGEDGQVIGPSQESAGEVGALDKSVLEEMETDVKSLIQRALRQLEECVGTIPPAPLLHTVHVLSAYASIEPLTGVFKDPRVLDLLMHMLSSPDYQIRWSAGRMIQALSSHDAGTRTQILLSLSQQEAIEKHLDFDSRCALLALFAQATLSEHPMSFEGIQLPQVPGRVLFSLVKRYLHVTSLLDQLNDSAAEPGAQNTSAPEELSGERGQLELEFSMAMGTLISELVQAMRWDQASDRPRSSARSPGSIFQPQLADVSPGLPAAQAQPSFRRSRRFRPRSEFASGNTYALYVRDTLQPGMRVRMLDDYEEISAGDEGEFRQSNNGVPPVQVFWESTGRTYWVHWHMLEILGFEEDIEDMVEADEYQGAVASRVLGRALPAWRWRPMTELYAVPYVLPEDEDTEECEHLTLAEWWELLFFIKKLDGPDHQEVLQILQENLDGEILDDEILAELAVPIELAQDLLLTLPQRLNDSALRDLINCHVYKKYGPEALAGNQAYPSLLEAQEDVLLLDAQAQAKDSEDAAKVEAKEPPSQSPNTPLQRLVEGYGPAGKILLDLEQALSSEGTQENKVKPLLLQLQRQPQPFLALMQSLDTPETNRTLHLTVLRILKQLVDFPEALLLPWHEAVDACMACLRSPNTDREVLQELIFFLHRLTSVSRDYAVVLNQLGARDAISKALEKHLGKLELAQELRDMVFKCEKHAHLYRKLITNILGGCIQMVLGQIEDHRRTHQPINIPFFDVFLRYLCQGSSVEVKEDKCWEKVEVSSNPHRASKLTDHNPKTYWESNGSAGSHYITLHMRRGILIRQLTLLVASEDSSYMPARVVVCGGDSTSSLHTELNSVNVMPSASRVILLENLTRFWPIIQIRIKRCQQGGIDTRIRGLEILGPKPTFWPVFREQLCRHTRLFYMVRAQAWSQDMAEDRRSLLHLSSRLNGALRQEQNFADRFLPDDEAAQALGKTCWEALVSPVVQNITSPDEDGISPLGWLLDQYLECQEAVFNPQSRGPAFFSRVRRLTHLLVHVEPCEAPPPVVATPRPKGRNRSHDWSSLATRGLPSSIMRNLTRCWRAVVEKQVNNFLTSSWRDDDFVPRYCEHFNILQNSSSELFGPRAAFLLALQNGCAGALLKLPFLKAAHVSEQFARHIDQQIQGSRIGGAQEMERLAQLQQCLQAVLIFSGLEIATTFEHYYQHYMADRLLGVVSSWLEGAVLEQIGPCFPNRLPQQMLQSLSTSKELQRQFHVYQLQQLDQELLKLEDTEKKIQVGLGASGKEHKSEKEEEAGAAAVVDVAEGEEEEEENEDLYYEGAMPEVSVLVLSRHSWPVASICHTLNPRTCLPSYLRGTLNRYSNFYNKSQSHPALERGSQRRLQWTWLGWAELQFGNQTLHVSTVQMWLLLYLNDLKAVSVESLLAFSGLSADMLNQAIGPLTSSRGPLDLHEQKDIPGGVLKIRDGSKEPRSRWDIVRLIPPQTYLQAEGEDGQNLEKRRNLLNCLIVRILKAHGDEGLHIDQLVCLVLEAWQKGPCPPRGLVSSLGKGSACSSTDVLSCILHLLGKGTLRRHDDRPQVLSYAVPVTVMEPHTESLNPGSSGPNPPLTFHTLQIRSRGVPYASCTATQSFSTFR
UniProt Q9Y4X5: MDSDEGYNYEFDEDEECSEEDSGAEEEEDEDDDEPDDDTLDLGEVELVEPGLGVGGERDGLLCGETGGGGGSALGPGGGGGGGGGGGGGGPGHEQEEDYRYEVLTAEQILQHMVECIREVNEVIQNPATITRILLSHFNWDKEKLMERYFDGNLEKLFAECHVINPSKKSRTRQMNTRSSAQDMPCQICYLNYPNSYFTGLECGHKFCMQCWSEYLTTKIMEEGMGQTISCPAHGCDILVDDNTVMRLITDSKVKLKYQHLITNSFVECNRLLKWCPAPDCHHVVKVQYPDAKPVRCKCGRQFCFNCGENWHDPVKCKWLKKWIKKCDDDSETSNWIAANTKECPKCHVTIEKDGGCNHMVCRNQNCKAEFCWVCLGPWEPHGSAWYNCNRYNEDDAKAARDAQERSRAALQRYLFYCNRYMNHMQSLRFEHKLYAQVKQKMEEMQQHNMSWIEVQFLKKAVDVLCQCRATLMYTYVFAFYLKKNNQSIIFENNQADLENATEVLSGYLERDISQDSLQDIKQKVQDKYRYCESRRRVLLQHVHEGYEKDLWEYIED
UniProt Q13620: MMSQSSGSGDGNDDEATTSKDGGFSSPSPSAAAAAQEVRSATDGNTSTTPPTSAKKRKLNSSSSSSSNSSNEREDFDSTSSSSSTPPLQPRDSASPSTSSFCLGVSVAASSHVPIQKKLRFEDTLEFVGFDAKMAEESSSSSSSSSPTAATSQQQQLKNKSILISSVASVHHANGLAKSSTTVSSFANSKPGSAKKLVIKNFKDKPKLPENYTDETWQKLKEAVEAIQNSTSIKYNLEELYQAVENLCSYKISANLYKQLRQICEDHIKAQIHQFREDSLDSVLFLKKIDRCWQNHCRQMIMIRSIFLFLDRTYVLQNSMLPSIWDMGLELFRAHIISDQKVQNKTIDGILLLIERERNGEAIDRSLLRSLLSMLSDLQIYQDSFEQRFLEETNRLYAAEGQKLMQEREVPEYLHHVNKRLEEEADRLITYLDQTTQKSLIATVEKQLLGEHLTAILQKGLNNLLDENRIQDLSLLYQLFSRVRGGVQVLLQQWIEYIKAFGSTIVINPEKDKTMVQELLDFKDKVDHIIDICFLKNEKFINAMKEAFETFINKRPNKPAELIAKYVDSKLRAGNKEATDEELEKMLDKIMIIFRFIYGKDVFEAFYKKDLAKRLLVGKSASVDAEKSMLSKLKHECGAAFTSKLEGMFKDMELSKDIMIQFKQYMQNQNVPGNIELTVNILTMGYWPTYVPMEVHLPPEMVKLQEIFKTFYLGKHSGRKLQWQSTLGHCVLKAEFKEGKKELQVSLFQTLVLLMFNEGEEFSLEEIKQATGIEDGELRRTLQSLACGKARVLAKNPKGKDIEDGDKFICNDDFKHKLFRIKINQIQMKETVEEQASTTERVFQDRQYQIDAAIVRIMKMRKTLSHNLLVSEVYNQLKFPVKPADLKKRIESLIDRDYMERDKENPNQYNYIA

T1: SFB-Lis1 WT (human) (UniProt P43034)
T1 sequence: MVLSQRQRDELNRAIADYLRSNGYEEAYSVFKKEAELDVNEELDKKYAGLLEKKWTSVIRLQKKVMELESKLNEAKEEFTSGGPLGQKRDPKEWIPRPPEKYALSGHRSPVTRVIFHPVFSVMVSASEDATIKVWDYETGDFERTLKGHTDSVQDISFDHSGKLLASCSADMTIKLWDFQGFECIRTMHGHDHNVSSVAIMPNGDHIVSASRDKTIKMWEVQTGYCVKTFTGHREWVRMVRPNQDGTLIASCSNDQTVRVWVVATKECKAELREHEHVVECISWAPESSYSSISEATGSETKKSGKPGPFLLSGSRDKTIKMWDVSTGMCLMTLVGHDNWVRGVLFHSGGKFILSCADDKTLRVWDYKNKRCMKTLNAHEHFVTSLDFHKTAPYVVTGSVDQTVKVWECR

B1: Nde1 (endogenous) (protein, UniProt Q9NXR1 1-335)
chain: MEDSGKTFSSEEEEANYWKDLAMTYKQRAENTQEELREFQEGSREYEAELETQLQQIETRNRDLLSENNRLRMELETIKEKFEVQHSEGYRQISALEDDLAQTKAIKDQLQKYIRELEQANDDLERAKRATIMSLEDFEQRLNQAIERNAFLESELDEKENLLESVQRLKDEARDLRQELAVQQKQEKPRTPMPSSVEAERTDTAVQATGSVPSTPIAHRGPSSSLNTPGSFRRGLDDSTGGTPLTPAARISALNIVGDLLRKVGALESKLASCRNLVYDQSPNRTGGPASGRSSKNRDGGERRPSSTSVPLGDKGLDTSCRWLSKSTTRSSSSC

The molecules below were run against T1, SFB-Lis1 WT (human) (assay: affinity purification with mass spectrometry; tandem affinity purification (streptavidin-sepharose, biotin elution, then S-protein-agarose) of SFB-tagged LisH proteins from HEK 293T lysate in NETN buffer, 4 °C; LC-MS/MS; filtered with CRAPome (SAINT 0.7, FCA ≥1.8, FCB ≥2, IS > 1)).
“Cul5 (endogenous) (from UniProt Q93034 1-780)” was tested, and the binding was “no binding”.
In the case of “ARIH2 (endogenous) (from UniProt O95376 1-493) (enzyme)”, the binding is reported as “binds”.
With “Cul9 (endogenous) (from UniProt Q8IWT3 1-2517)” the binding was “binds”.
“Cul7 (endogenous) (from UniProt Q14999 1-1698)” was tested, and the binding was “binds”.
In the case of “ARIH1 (endogenous) (from UniProt Q9Y4X5 1-557) (enzyme)”, the binding is reported as “binds”.
In the case of “Cul4B (endogenous) (from UniProt Q13620 1-913)”, the binding is reported as “binds”.
For “Cul4A (endogenous) (from UniProt Q13619 1-759)”, the binding was “binds”.
In the case of B1, the binding is reported as “binds”.

No constants are given. Whether binding was seen depends on the method and setting. Binding seen in cells or lysates may run through a third protein. Here binding means that the protein was enriched with, or labelled near, the bait; the list need not be complete. A no says only that the protein was not detected with the bait.
